These are yes or no findings as the source states them, for the method shown. Binding seen in cells or lysates may run through a third protein. Some binding calls cover weakened binding; strength is not graded here. Tags and fused reporters may be left off the sequences shown.
Biological target: T1, Drosophila Parkin (Drosophila (endogenous in adult flies)) (UniProt Q7KTX7)
T1 sequence: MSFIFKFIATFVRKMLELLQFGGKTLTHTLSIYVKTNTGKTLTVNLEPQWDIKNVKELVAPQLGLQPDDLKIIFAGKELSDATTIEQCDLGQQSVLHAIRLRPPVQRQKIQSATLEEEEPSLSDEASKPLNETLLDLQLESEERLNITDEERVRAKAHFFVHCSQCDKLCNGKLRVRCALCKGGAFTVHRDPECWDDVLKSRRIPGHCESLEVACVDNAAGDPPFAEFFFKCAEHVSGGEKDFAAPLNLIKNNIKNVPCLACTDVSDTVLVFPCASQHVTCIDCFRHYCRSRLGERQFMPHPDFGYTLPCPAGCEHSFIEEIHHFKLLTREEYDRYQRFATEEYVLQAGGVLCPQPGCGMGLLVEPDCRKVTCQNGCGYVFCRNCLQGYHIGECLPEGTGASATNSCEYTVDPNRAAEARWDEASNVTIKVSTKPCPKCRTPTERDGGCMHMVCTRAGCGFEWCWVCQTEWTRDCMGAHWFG
Experiment: co-IP; affinity purified anti-Parkin antiserum used to immunoprecipitate Parkin from lysate of wt adult flies (park^25 null mutants as control); blot with anti-dMfn antiserum; lysis buffer 50 mM Tris-HCl pH 7.4, 150 mM NaCl, 1% NP-40, 10% glycerol; overnight at 4°C, Protein G Sepharose

binding: binds
B1: Drosophila Mitofusin (dMfn) (protein, UniProt Q7YU24 1-810)
chain: MAAYLNRTISMVTGQTGPADDDRHASSTDTVDKSGPGSPLSRFNSSLQQSGSTMAANLLPESRLYQSNDKSPLQIFVRAKKKINDIYGEIEEYVHETTTFINALHAEAEIVDKAERELFESYVYKVAAIREVLQRDHMKVAFFGRTSNGKSSVINAMLREKILPSGIGHTTNCFCQVEGSNGGEAYLMTEGSEEKLNVVNIKQLANALCQEKLCESSLVRIFWPRERCSLLRDDVVFVDSPGVDVSANLDDWIDNHCLNADVFVLVLNAESTMTRAEKQFFHTVSQKLSKPNIFILNNRWDASANEPECQESVKSQHTERCIDFLTKELKVSNEKEAAERVFFVSARETLQARIEEAKGNPPHMGAIAEGFQIRYFEFQDFERKFEECISQSAVKTKFQQHSSRGKSVSGDMKSMLDNIYERITIFRNLKQDQKNLLTERIQGTETQMMQVTREMKMKIHNMVEEVEEKVSKALNEEIWRLGVLIDEFNMPFHPERLVLNIYKKELNAHVESGLGSNLRARLSMALAMNVESAQTEMTDRMHALVPNEQLLATSTKMVVRTQPFEMLYSLNCQNLCADFQEDLEFKFSWGIAAMIQRFTGKVRERSKKGQPALVNRQSSIGHSVSTPTTTPVEATPVCLLPAPVVAGITPEQLSLISRFAVSSIGSQGTVGGLVVAGVMLKTIGWRVLVGVGALYGCIYLYERLSWTNSAKERTFKSQYVRHATKKLKMIVDLTSANCSHQVQQELSSTFARLCRTVDTATTDMNDELKTLDSQLNILEANQKQLKLLRNKANYIQNELDIFEHNYISPQ

Source: article PMC2850930
